For some assays here: A weaker result is weaker than the reference pair of the same experiment. For some assays here: Tags and fusion partners may be left off the protein sequences shown. For some assays here: For at least one entry, the source does not settle the construct or the ends of the probe. For some assays here: At least one verdict was read from the data and is not stated in words by the source.
How the values were obtained:
Assay in all cases: EMSA
hMBD4 MBD (Homo sapiens) = target: T1, hMBD4 MBD (Homo sapiens) (UniProt O95243); details: EMSA: 20 mM HEPES pH 7.3, 30 mM KCl, 1 mM EDTA, 10 mM (NH4)2SO4, 1 mM DTT, 0.2% Tween 20, 50 ng/uL poly(dA)-poly(dT), recombinant protein, protein details: N-term SpA(Z)-Factor Xa-TEV, C-term 8xHis, label: 5' 6-FAM on strand 1
T1 sequence: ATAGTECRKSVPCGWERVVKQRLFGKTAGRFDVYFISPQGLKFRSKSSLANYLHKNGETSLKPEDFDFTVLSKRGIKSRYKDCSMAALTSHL

The chains behind the UniProt entries cited, without tags or fusion partners. Residues count along the entry.
UniProt P51608, 90-181: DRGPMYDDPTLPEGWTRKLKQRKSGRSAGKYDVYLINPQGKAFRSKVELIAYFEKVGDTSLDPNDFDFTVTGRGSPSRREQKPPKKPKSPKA

hMBD3 MBD (Homo sapiens) = target: T2, hMBD3 MBD (Homo sapiens) (UniProt O95983); details: EMSA: 20 mM HEPES pH 7.3, 30 mM KCl, 1 mM EDTA, 10 mM (NH4)2SO4, 1 mM DTT, 0.2% Tween 20, 50 ng/uL poly(dA)-poly(dT), recombinant protein, protein details: N-term SpA(Z)-Factor Xa-TEV, C-term 8xHis, label: 5' 6-FAM on strand 1
T2 sequence: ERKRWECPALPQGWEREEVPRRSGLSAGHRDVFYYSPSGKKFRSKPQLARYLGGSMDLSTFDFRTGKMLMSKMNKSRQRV

[1] = target: hMeCP2 MBD (Homo sapiens) (UniProt P51608); details: poly(dA)-poly(dT) 50 ng/uL; 5-methylcytosine at C12 of both strands (o2967/o2909); EMSA: 20 mM HEPES pH 7.3, 30 mM KCl, 1 mM EDTA, 10 mM (NH4)2SO4, 1 mM DTT, 0.2% Tween 20, 50 ng/uL poly(dA)-poly(dT); recombinant protein; protein details: N-term SpA(Z)-Factor Xa-TEV, C-term 8xHis; label: 5' 6-FAM on strand 1

AAAAAAAAAAACGAAAAAAAAAAA (double strand) [C/fC duplex]
binding result (hMBD4 MBD (Homo sapiens); 5-formylcytosine at C12 of one strand only, strand assignment not certain): binds more weakly

AAAAAAAAAAACGAAAAAAAAAAA (double strand) [caC/caC duplex]
binding result (hMBD3 MBD (Homo sapiens); slightly less reduced, 5-carboxycytosine at C12 of both strands (o3117/o3114)): binds more weakly
binding result (hMBD4 MBD (Homo sapiens); 5-carboxycytosine at C12 of both strands (o3117/o3114)): binds more weakly

AAAAAAAAAAACGAAAAAAAAAAA (double strand) [caC/fC duplex]
binding result (hMBD3 MBD (Homo sapiens); slightly less reduced, 5-carboxycytosine at C12 of one strand, 5-formylcytosine at C12 of the other, strand assignment not certain): binds more weakly

AAAAAAAAAAACGAAAAAAAAAAA (double strand) [fC/fC duplex]
binding result (hMBD4 MBD (Homo sapiens); 5-formylcytosine at C12 of both strands (o3116/o3113)): binds more weakly

AAAAAAAAAAACGAAAAAAAAAAA (double strand) [mC/mC duplex (p06)]
binding result (hMBD3 MBD (Homo sapiens); overall low binding, 5-methylcytosine at C12 of both strands (o2967/o2909)): binds more weakly
binding result (hMBD4 MBD (Homo sapiens); 5-methylcytosine at C12 of both strands (o2967/o2909)): binds
Kd [1]: 27 nM

From article PMC7055227
